Measured values: PubChem BioAssay AID328 (DTP/NCI, 2004)
The list is a part of this screen's results and no random one: it gathers tests that were run many times, whatever their T/C, doses with no T/C, and many T/C values between a quarter and a half above the control. Other doses and runs of a compound stand elsewhere. T/C: endpoint of the treated group in % of that of the vehicle group. Some entries give survivors of the animals treated and no T/C: the source files T/C as zero there, which appears to mark a toxic dose or a test without result, not a measured value. Some survivor counts are full or nearly so, which does not show that the dose was tolerated: the source hardly ever lists a survival T/C far under the control, and the zero likely stands for such cases as well. Survivors were counted at the toxicity check, usually on the fifth day, unless a day is given; later deaths do not show. Schedules are NCI's codes, read here as Q, the interval in days (D) or hours (H), X, the number of doses. Some entries were tested several times; the values are given in rising order. Where survival is the endpoint, the PubChem record calls one and a half times the control and up active, and a quarter to a half above the control has no call in these data; cut-offs in other NCI protocols can differ. Some T/C values are followed by the survivors on the day toxicity was checked, most often the fifth; without a count, all were alive then.

Test system: BDF1 mice, P388 leukemia ip, median survival T/C
Assay: NCI In Vivo Anticancer Drug Screen. Data for tumor model P388 Leukemia (intraperitoneal) in B6D2F1 (BDF1) mice
Details: T/C endpoint: median survival time, higher T/C = longer survival
Outline: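 Each value expresses how treatment altered survival: treated-mouse outcome over vehicle-mouse outcome, both groups bearing the transplanted tumour.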

[1] = dose: 100.0 mg/kg/injection, schedule: Q01DX009 (ip), vehicle: saline with Tween-80
[2] = dose: 100.0 mg/kg/injection, schedule: Q04DX003 (ip), vehicle: saline with Tween-80
[3] = dose: 200.0 mg/kg/injection, schedule: Q01DX009 (ip), vehicle: saline with Tween-80
[4] = dose: 400.0 mg/kg/injection, schedule: Q01DX009 (ip), vehicle: saline with Tween-80
[5] = dose: 400.0 mg/kg/injection, schedule: Q04DX003 (ip), vehicle: saline with Tween-80
[6] = dose: 3.12 mg/kg/injection, schedule: Q01DX009 (ip), vehicle: saline
[7] = dose: 6.25 mg/kg/injection, schedule: Q01DX009 (ip), vehicle: saline
[8] = dose: 12.5 mg/kg/injection, schedule: Q01DX009 (ip), vehicle: saline
[9] = dose: 25.0 mg/kg/injection, schedule: Q01DX009 (ip), vehicle: saline
[10] = dose: 25.0 mg/kg/injection, schedule: Q04DX003 (ip), vehicle: saline
[11] = dose: 50.0 mg/kg/injection, schedule: Q01DX009 (ip), vehicle: saline with Tween-80
[12] = dose: 200.0 mg/kg/injection, schedule: Q01DX009 (ip), vehicle: saline
[13] = dose: 100.0 mg/kg/injection, schedule: Q04DX003 (ip), vehicle: saline
[14] = dose: 200.0 mg/kg/injection, schedule: Q04DX003 (ip), vehicle: saline with Tween-80
[15] = dose: 400.0 mg/kg/injection, schedule: Q04DX003 (ip), vehicle: saline
[16] = dose: 50.0 mg/kg/injection, schedule: Q01DX009 (ip), vehicle: saline
[17] = dose: 25.0 mg/kg/injection, schedule: Q01DX009 (ip), vehicle: saline with Tween-80
[18] = dose: 225.0 mg/kg/injection, schedule: Q01DX009 (ip), vehicle: Klucel (hydroxypropylcellulose) (HPC)

CCC(c1ccc2cc(OC)ccc2c1)C(C)(C)C(=O)F (configuration not stated)
T/C (dose: 25.0 mg/kg/injection, schedule: Q01DX009 (ip), vehicle: Klucel (hydroxypropylcellulose) (HPC)): 144 % of control | T/C (dose: 33.0 mg/kg/injection, schedule: Q01DX009 (ip), vehicle: Klucel (hydroxypropylcellulose) (HPC)): 126 % of control [5 of 6 alive] | T/C (dose: 50.0 mg/kg/injection, schedule: Q01DX009 (ip), vehicle: Klucel (hydroxypropylcellulose) (HPC)): 126 % of control [4 of 6 alive]

CCOCc1nc2nc(Cl)c(Cl)nc2[nH]1
survivor count [1]: 4 of 6 | survivor count [2]: 6 of 6 | survivor count [3]: 3 of 6 | survivor count [4]: 1 of 6 | survivor count [5]: 3 of 6

CC(=O)CC(c1ccc2c(c1)OCO2)c1c(O)c2ccccc2oc1=O (configuration not stated)
survivor count [6]: 4 of 6 | survivor count [7]: 1 of 6 | survivor count [8]: 4 of 6 | survivor count [9]: 3 of 6 | survivor count [10]: 6 of 6

O=C1c2ccccc2C(=O)N1c1cc(O)cc(O)c1
survivor count (dose: 2.0 mg/kg/injection, schedule: Q01DX009 (ip), vehicle: water): 6 of 6 | survivor count (dose: 8.0 mg/kg/injection, schedule: Q01DX009 (ip), vehicle: water): 5 of 6 | T/C (dose: 16.0 mg/kg/injection, schedule: Q01DX009 (ip), vehicle: water): 129 % of control

OCc1cccc(F)c1
survivor count (dose: 400.0 mg/kg/injection, schedule: Q01DX009 (ip), vehicle: saline): 5 of 6

CC1(C)OCC(/C=C/C=N/Nc2ccc([N+](=O)[O-])cc2)O1 (configuration not stated)
survivor count (dose: 400.0 mg/kg/injection, schedule: Q01DX001 (ip), vehicle: saline with Tween-80): 3 of 6

O=C(/C=C/c1ccccc1)NC(CO)Cc1ccccc1 (configuration not stated)
survivor count [11]: 5 of 6

CC(Cc1ccccc1)CC(C(=O)O)C(=O)O (configuration not stated)
survivor count [5]: 4 of 6

COc1cc(OC)c(NC(=O)c2ccc([N+](=O)[O-])s2)cc1Cl
survivor count (dose: 100.0 mg/kg/injection, schedule: Q01DX005 (ip), vehicle: saline): 6 of 6 | survivor count (dose: 200.0 mg/kg/injection, schedule: Q01DX005 (ip), vehicle: saline): 6 of 6

CCOC(=O)Cc1csc(NN=C(C)C)n1
survivor count [12]: 0 of 6

CC(=O)OCC(=O)C1CCC=CC1OC(C)=O (configuration not stated)
survivor count [10]: 3 of 6 | survivor count (dose: 50.0 mg/kg/injection, schedule: Q04DX003 (ip), vehicle: saline): 5 of 6 | T/C [13]: 127 % of control | survivor count [13]: 6 of 6 | survivor count (dose: 200.0 mg/kg/injection, schedule: Q04DX003 (ip), vehicle: saline): 5 of 6

C[C@]12CCC(=O)C=C1CC[C@@H]1[C@@H]2[C@@H](O)C[C@@]2(C)[C@H]1CC[C@]2(O)C(=O)CO
T/C (dose: 50.0 mg/kg/injection, schedule: Q01DX010 (sc), vehicle: steroid suspending solution): 130 % of control | survivor count (dose: 400.0 mg/kg/injection, schedule: Q01DX010 (sc), vehicle: steroid suspending solution): 6 of 6

CC(CCCN)Nc1cc2c(c3cccnc13)OCCO2 (configuration not stated)
survivor count [11]: 3 of 6 | survivor count [1]: 0 of 6 | survivor count [3]: 0 of 6

COc1ccc(NC(=O)CC(C)=O)cc1
survivor count [9]: 6 of 6

Brc1ccc(Oc2ccccc2)cc1
T/C [14]: 127 % of control | T/C [5]: 145 % of control

Nc1nc(=S)c2[nH]c(=S)[nH]c2[nH]1
T/C (dose: 176.0 mg/kg/injection, schedule: Q04DX003 (ip), vehicle: saline with Tween-80): 125 % of control | T/C (dose: 264.0 mg/kg/injection, schedule: Q04DX003 (ip), vehicle: saline with Tween-80): 145 % of control

CC[Se](CC)CC.CC[Se](CC)CC.C[CH2][Ge]([CH2]C)[O][Ge]([CH2]C)[CH2]C
survivor count [11]: 6 of 6 | survivor count [3]: 5 of 6

C1=NOC2c3ccc4ccccc4c3CCC12 (configuration not stated)
survivor count (dose: 100.0 mg/kg/injection, schedule: Q04DX003 (ip), vehicle: Klucel (hydroxypropylcellulose) (HPC)): 6 of 6

COC(=O)c1ccc(SCCCN2CCOCC2)cc1
T/C [15]: 127 % of control

CC[C@@]1(O)C(=O)OCc2c1cc1n(c2=O)Cc2cc3ccccc3nc2-1
T/C (dose: 1.6 mg/kg/injection, schedule: Q04DX003 (ip), vehicle: saline with Tween-80): 138 % of control | survivor count [7]: 6 of 6 | survivor count [8]: 6 of 6 | survivor count [9]: 0 of 6 | survivor count [16]: 0 of 6

CCC[CH2][Hg][Cl]
T/C (dose: 5.0 mg/kg/injection, schedule: Q01DX009 (ip), vehicle: other): 125 % of control | T/C (dose: 10.0 mg/kg/injection, schedule: Q01DX009 (ip), vehicle: other): 135 % of control | survivor count (dose: 20.0 mg/kg/injection, schedule: Q01DX009 (ip), vehicle: other): 6 of 6 | T/C [17]: 142 % of control | survivor count [17]: 2 of 6 | T/C (dose: 25.0 mg/kg/injection, schedule: Q04DX003 (ip), vehicle: saline sonified): 125 % of control | survivor count (dose: 37.5 mg/kg/injection, schedule: Q01DX009 (ip), vehicle: saline with Tween-80): 1 of 6 | survivor count [11]: 1 of 6

CC(=O)NC(CO)(CO)CO
survivor count (dose: 400.0 mg/kg/injection, schedule: Q01DX001 (ip), vehicle: saline): 6 of 6

CS(C)=O.CS(C)=O.[Cl][Sn]([Cl])([Cl])[Cl]
survivor count [18]: 4 of 6 | survivor count (dose: 340.0 mg/kg/injection, schedule: Q01DX009 (ip), vehicle: Klucel (hydroxypropylcellulose) (HPC)): 3 of 6 | survivor count (dose: 400.0 mg/kg/injection, schedule: Q04DX003 (ip), vehicle: Klucel (hydroxypropylcellulose) (HPC)): 6 of 6

Clc1cc(Cl)nc(N2CC2)n1
survivor count [2]: 0 of 6 | survivor count [14]: 0 of 6 | survivor count [5]: 0 of 6

CCOP1(=O)N(C)CCN1C
survivor count (dose: 100.0 mg/kg/injection, schedule: Q01DX009 (ip), vehicle: saline): 5 of 6 | survivor count [12]: 1 of 6

Cc1nn2c(=O)[nH]cnc2c1Cl
survivor count [2]: 6 of 6 | survivor count [4]: 3 of 6

BrC1CC(Br)c2c1c1c(c3c2C(Br)CC3Br)C(Br)CC1Br (configuration not stated)
T/C [11]: 137 % of control | T/C [1]: 146 % of control

CCN(CC)CC(C)OC(=O)c1ccc(N)cc1 (configuration not stated)
T/C [16]: 125 % of control | survivor count [12]: 3 of 6 | survivor count [15]: 0 of 6

OCCC1CC1=C1CC1 (configuration not stated)
survivor count (dose: 150.0 mg/kg/injection, schedule: Q01DX009 (ip), vehicle: Klucel (hydroxypropylcellulose) (HPC)): 2 of 6 | survivor count [18]: 0 of 6 | survivor count (dose: 335.0 mg/kg/injection, schedule: Q01DX009 (ip), vehicle: Klucel (hydroxypropylcellulose) (HPC)): 0 of 6

c1cc[c]([Pb]([c]2ccccc2)([c]2ccccc2)[n]2c3ccccc3c3ccccc32)cc1
T/C [6]: 127 % of control | survivor count (dose: 4.12 mg/kg/injection, schedule: Q01DX009 (ip), vehicle: saline): 6 of 6 | T/C [7]: 133 % of control | survivor count [7]: 0 of 6 and 2 of 6 | survivor count (dose: 9.37 mg/kg/injection, schedule: Q01DX009 (ip), vehicle: saline): 0 of 6 and 2 of 6

C[C@]12CCC(=O)C=C1CC[C@@H]1[C@@H]2C(=O)C[C@]2(C)C3=CC(=O)O[C@H]3C[C@@H]12
survivor count (dose: 200.0 mg/kg/injection, schedule: Q01DX009 (ip), vehicle: Klucel (hydroxypropylcellulose) (HPC)): 2 of 6 | survivor count (dose: 400.0 mg/kg/injection, schedule: Q01DX009 (ip), vehicle: Klucel (hydroxypropylcellulose) (HPC)): 0 of 6

[N-]=[N+]=C1C=C(c2ccccc2)N=C1c1ccccc1
survivor count [12]: 4 of 6
